The assay addresses T1, pyocin S2 immunity protein (P. aeruginosa (strain not stated)) (UniProt Q06579).
T1 sequence: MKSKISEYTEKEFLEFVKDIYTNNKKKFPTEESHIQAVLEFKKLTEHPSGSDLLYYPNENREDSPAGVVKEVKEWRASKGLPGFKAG
Kind of assay: co-purification (nickel affinity + size exclusion chromatography); pyocin and immunity protein co-expressed in E. coli BL21(DE3)pLysS, His6 tag on the immunity protein only; HisTrap in 20 mM Tris/HCl, 500 mM NaCl, pH 7.5, 20-500 mM imidazole gradient, then Superdex S200 or S75 in 50 mM Tris/HCl, 200 mM NaCl, pH 7.5. On the technique in general: SEC sorts molecules by how far they enter the pores of the column.

These are yes or no findings as the source states them, for the method shown. Some results given as binding are weak or reduced against the parent protein; the word gives no strength.

On to “pyocin S2Δ17 (from UniProt Q06584 18-689) (domain or fragment)”, for which the binding entry was “binds”.

(Values after article PMC4964976.)
